Laboratory results from patent US10618918B2, “Substituted boronic acids as antimicrobials” (priority 2015, dated 2020).
The name of at least one read-out is uncertain.

Experiments:
[1] = test system: ECL1002; experiment: Tigemonam potentiation (MPC@4), strain ECL1002; type: cell-based; conditions: minimum BLI concentration inhibiting growth with tigemonam 4 μg/mL; tested up to 40 μg/mL
[2] = test system: KP1009 CTX-M-15; experiment: Tigemonam potentiation (MPC@4), strain KP1009 CTX-M-15; conditions: minimum BLI concentration inhibiting growth with tigemonam 4 μg/mL; tested up to 40 μg/mL
[3] = test system: KP1005 CTX-M-14; experiment: Aztreonam potentiation (MPC@4), strain KP1005 CTX-M-14; conditions: minimum BLI concentration inhibiting growth with aztreonam 4 μg/mL; tested up to 40 μg/mL

Row | Compound | TIG MPC4 ECL1002 [1] | TIG MPC4 CTX-M-15 KP1009 [2] | AZT MPC4 CTX-M-14 KP1005 [3]
1 | C[C@]1(Cn2ccnn2)[C@H](C(=O)O)N2C(=O)C[C@H]2S1(=O)=O [Tazobactam, reference compound] | Y (Y = 5 μg/mL < MPC@4 ≤ 20 μg/mL) | Y (Y = 5 μg/mL < MPC@4 ≤ 20 μg/mL) | Y (Y = 5 μg/mL < MPC@4 ≤ 20 μg/mL)
2 | CON=Cc1ccc2c(c1C(=O)[O-])O[B-](O)(O)CC2.[Na+].[Na+] [Compound 55, Disodium; 4,4-dihydroxy-8-(methoxyiminomethyl)-5-oxa-4-boranuidabicyclo[4.4.0]deca-1(6),7,9-triene-7-carboxylate] | X (X = MPC@4 ≤ 5 μg/mL) |  | 
3 | O=C([O-])c1c(F)ccc2c1O[B-](O)(O)CC2.[Na+].[Na+] [Compound 8, DISODIUM; 8-FLUORO-4,4-DIHYDROXY-5-OXA-4-BORANUIDABICYCLO[4.4.0]DECA-1(6),7,9-TRIENE-7-CARBOXYLATE] | X (X = MPC@4 ≤ 5 μg/mL) |  | 
4 | O=C([O-])c1c(CSc2nncs2)ccc2c1O[B-](O)(O)CC2.[Na+].[Na+] [Compound 20, Disodium; 4,4-dihydroxy-8-(1,3,4-thiadiazol-2-ylsulfanylmethyl)-5-oxa-4-boranuidabicyclo[4.4.0]deca-1(6),7,9-triene-7-carboxylate] | X (X = MPC@4 ≤ 5 μg/mL) |  | 
5 | O=C([O-])c1cc(F)cc2c1O[B-](O)(O)CC2.[Na+].[Na+] [Compound 37, Disodium; 9-fluoro-4,4-dihydroxy-5-oxa-4-boranuidabicyclo[4.4.0]deca-1(6),7,9-triene-7-carboxylate] | X (X = MPC@4 ≤ 5 μg/mL) |  | 
6 | O=C(O)c1c(F)ccc2c1OB(O)COC2 [Compound 58, 8-Fluoro-2-hydroxy-3,5-dihydro-1,4,2-benzodioxaborepine-9-carboxylic acid] | X (X = MPC@4 ≤ 5 μg/mL) |  | 
7 | C[C@H]1Cc2cccc(C(=O)O)c2O[B-]1(O)O [Compound 9, Disodium; (3S)-4,4-dihydroxy-3-methy-5-oxa-4-boranuidabicyclo[4.4.0]deca-1(6),7,9-triene-7-carboxylate] | X (X = MPC@4 ≤ 5 μg/mL) |  | 
8 | CS(=O)(=O)c1ccc2c(c1C(=O)O)OB(O)CC2 [Compound 39, 2-Hydroxy-7-methylsulfonyl-3,4-dihydro-1,2-benzoxaborinine-8-carboxylic acid] | X (X = MPC@4 ≤ 5 μg/mL) |  | 
9 | O=C([O-])c1c(C(F)F)ccc2c1O[B-](O)(O)CC2.[Na+].[Na+] [Compound 50, Disodium; 8-(difluoromethyl)-4,4-dihydroxy-5-oxa-4-boranuidabicyclo[4.4.0]deca-1(6),7,9-triene-7-carboxylate] | X (X = MPC@4 ≤ 5 μg/mL) |  | 
10 | C#CCOc1ccc2c(c1C(=O)O)OB(O)CC2 [Compound 25, 2-Hydroxy-7-prop-2-ynoxy-3,4-dihydro-1,2-benzoxaborinine-8-carboxylic acid] | X (X = MPC@4 ≤ 5 μg/mL) |  | 
11 | C[C@@H]1Cc2cccc(C(=O)[O-])c2O[B-]1(O)O.[Na+].[Na+] [Compound 10, Disodium; (3R)-4,4-dihydroxy-3-methyl-5-oxa-4-boranuidabicyclo[4.4.0]deca-1(6),7,9-triene-7-carboxylate] | Y (Y = 5 μg/mL < MPC@4 ≤ 20 μg/mL) |  | 
12 | COCC#CCOc1ccc2c(c1C(=O)[O-])O[B-](O)(O)CC2.[Na+].[Na+] [Compound 31, Disodium; 4,4-dihydroxy-8-(4-methoxybut-2-ynoxy)-5-oxa-4-boranuidabicyclo[4.4.0]deca-1(6),7,9-triene-7-carboxylate] | X (X = MPC@4 ≤ 5 μg/mL) |  | 
13 | O=C(O)c1c(F)c(F)cc2c1OB(O)CC2 [Compound 35, 6,7-Difluoro-2-hydroxy-3,4-dihydro-1,2-benzoxaborinine-8-carboxylic acid] | X (X = MPC@4 ≤ 5 μg/mL) |  | 
14 | C#Cc1ccc2c(c1C(=O)[O-])O[B-](O)(O)CC2.[Na+].[Na+] [Compound 18, Disodium; 8-ethynyl-4,4-dihydroxy-5-oxa-4-boranuidabicyclo[4.4.0]deca-1(6),7,9-triene-7-carboxylate] | X (X = MPC@4 ≤ 5 μg/mL) |  | 
15 | CSCC(=O)NC1CB(O)Oc2c(C(=O)O)cccc21 (stereo not shown) [Compound 3, 2-HYDROXY-4-(2-(METHYLTHIO)ACETAMIDO)-3,4-DIHYDRO-2H-BENZO[E][1.2]OXABORININE-8-CARBOXYLIC ACID] | X (X = MPC@4 ≤ 5 μg/mL) |  | 
16 | C[S+]([O-])c1ccc2c(c1C(=O)[O-])O[B-](O)(O)CC2.[Na+].[Na+] (stereo not shown) [Compound 40, Disodium; 4,4-dihydroxy-8-methylsulfinyl-5-oxa-4-boranuidabicyclo[4.4.0]deca-1(6),7,9-triene-7-carboxylate] | X (X = MPC@4 ≤ 5 μg/mL) |  | 
17 | COc1ccc2c(c1P(=O)(O)O)OB(O)CC2 [Compound 33, (2-Hydroxy-7-methoxy-3,4-dihydro-1,2-benzoxaborinin-8-yl)phosphonic acid] | X (X = MPC@4 ≤ 5 μg/mL) |  | 
18 | O=C([O-])c1c(OC(F)F)ccc2c1O[B-](O)(O)CC2.[Na+].[Na+] [Compound 56, Disodium; 8-(difluoromethoxy)-4,4-dihydroxy-5-oxa-4-boranuidabicyclo[4.4.0]deca-1(6),7,9-triene-7-carboxylate] | X (X = MPC@4 ≤ 5 μg/mL) |  | 
19 | O=C(O)c1c(OC(CO)CO)ccc2c1OB(O)CC2 [Compound 44, 2-hydroxy-7-[2-hydroxy-1-(hydroxymethyl)ethoxy]-3,4-dihydro-1,2-benzoxaborinine-8-carboxylic acid] | X (X = MPC@4 ≤ 5 μg/mL) |  | 
20 | CSc1ccc2c(c1C(=O)[O-])O[B-](O)(O)CC2.[Na+].[Na+] [Compound 36, Disodium; 4,4-dihydroxy-8-methylsulfanyl-5-oxa-4-boranuidabicyclo[4.4.0]deca-1(6),7,9-triene-7-carboxylate] | X (X = MPC@4 ≤ 5 μg/mL) |  | 
21 | O=C(O)c1c(-n2ccnn2)ccc2c1O[B-](O)(O)CC2 [Compound 13, Disodium; 4,4-dihydroxy-8-(triazol-1-yl)-5-oxa-4-boranuidabicyclo[4.4.0]deca-1(6),7,9-triene-7-carboxylate] | X (X = MPC@4 ≤ 5 μg/mL) |  | 
22 | O=C(O)c1c(OCC2OCCO2)ccc2c1OB(O)CC2 [Compound 26, 7-(1,3-Dioxolan-2-ylmethoxy)-2-hydroxy-3,4-dihydro-1,2-benzoxaborinine-8-carboxylic acid] | X (X = MPC@4 ≤ 5 μg/mL) |  | 
23 | O=C([O-])c1c(OCCN2CCOCC2)ccc2c1O[B-](O)(O)CC2.[Na+].[Na+] [Compound 27, Disodium; 4,4-dihydroxy-8-(2-morpholinoethoxy)-5-oxa-4-boranuidabicyclo[4.4.0]deca-1(6),7,9-triene-7-carboxylate] | X (X = MPC@4 ≤ 5 μg/mL) |  | 
24 | CS(=O)(=O)Nc1ccc2c(c1C(=O)[O-])O[B-](O)(O)CC2.[Na+].[Na+] [Compound 51, Disodium; 4,4-dihydroxy-8-(methanesulfonamido)-5-oxa-4-boranuidabicyclo[4.4.0]deca-1(6),7,9-triene-7-carboxylate] | X (X = MPC@4 ≤ 5 μg/mL) |  | 
25 | COc1c(F)cc2c(c1C(=O)O)OB(O)CC2 [Compound 34, 6-Fluoro-2-hydroxy-7-methoxy-3,4-dihydro-1,2-benzoxaborinine-8-carboxylic acid] | X (X = MPC@4 ≤ 5 μg/mL) |  | 
26 | O=C(Cc1cccs1)NC1CB(O)Oc2c(C(=O)O)cccc21 (stereo not shown) [Compound 1, 2-HYDROXY-4-(2-(THIOPHEN-2-YL)ACETAMIDO)-3,4-DIHYDRO-2H-BENZO[E][1,2]OXABORININE-8-CARBOXYLIC ACID] | X (X = MPC@4 ≤ 5 μg/mL) |  | 
27 | O=C([O-])c1cncc2c1O[B-](O)(O)CC2.[Na+].[Na+] [Compound 59, Disodium; 4,4-dihydroxy-5-oxa-9-aza-4-boranuidabicyclo[4.4.0]deca-1(6),7,9-triene-7-carboxylate] | Y (Y = 5 μg/mL < MPC@4 ≤ 20 μg/mL) |  | 
28 | O=C([O-])c1c(OCC#CCN2CCC2)ccc2c1O[B-](O)(O)CC2.[Na+].[Na+] [Compound 62, Disodium; 8-[4-(azetidin-1-yl)but-2-ynoxy]-4,4-dihydroxy-5-oxa-4-boranuidabicyclo[4.4.0]deca-1(6),7,9-triene-7-carboxylate] | X (X = MPC@4 ≤ 5 μg/mL) |  | 
29 | Nc1nnc(SCc2ccc3c(c2C(=O)[O-])O[B-](O)(O)CC3)s1.[Na+].[Na+] [Compound 22, Disodium; 8-[(5-amino-1,3,4-thiadiazol-2-yl)sulfanylmethyl]-4,4-dihydroxy-5-oxa-4-boranuidabicyclo[4.4.0]deca-1(6),7,9-triene-7-carboxylate] | X (X = MPC@4 ≤ 5 μg/mL) |  | 
